Biological target: T1, NOS (Papaver somniferum, UniProt I3PLR3)
T1 construct: His-tag (pRSETA leader) (N); made in house; host or cells: Escherichia coli Rosetta (DE3) pLysS
T1 sequence (I3PLR3 1-348): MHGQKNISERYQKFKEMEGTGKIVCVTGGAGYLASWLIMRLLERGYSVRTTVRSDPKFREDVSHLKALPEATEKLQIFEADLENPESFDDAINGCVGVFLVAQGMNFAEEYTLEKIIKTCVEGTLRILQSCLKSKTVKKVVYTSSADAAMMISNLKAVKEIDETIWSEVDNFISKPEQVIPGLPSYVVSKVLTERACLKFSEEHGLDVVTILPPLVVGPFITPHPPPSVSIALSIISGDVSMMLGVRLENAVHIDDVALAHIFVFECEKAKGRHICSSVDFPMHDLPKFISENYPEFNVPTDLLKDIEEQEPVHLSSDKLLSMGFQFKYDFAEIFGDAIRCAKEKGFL
Assay type: biochemical, opium poppy (Papaver somniferum)
Details: recombinant NOS, product detection by LC-MS/MS
Description: The full-length cDNA sequence of CL1327Contig1 (see: Example 2) was cloned into vector pRSETA in-frame with an N-terminal His-tag and expressed in E. coli as follows. The NOS coding region was amplified from opium poppy stem cDNA using the following primer set: 5′-[…]-3′ (SEQ ID NO: 601) and 5′-[…]-3′ (SEQ ID NO: 602). The NOS cDNA was cloned into the expression vector pRSETA (Invitrogen) at the SacI and KpnI restriction sites in frame with an N-terminal His-tag sequence. The expression construct was transformed into Escherichia coli strain Rosetta (DE3) pLysS (EMD Chemicals, Darmstadt, Germany). Expression of the recombinant gene was induced overnight with 1 mM isopropyl β-D-thiogalactoside (IPTG) at room temperature. Cells were harvested by centrifugation and sonicated in a buffer containing 50 mM sodium phosphate, pH 7.0, 300 mM NaCl, and 10 mM β-mercaptoethanol. […] Protein concentration was determined by the Bradford assay (Bio-Rad, Hercules, Calif.) using bovine serum albumin as the standard.
The purified recombinant NOS enzyme (see: Example 4) was assayed using either narcotine hemiacetal as the substrate (in the presence of either NAD^+ or NADP^+ as cofactor) for dehydrogenase activity, or with noscapine as the substrate (in the presence of NADH or NADPH as the cofactor) for reductase activity. LC-MS/MS was used to identify and quantify product formation (FIG. 7). […]

How did the “acceptance as substrate / conversion by NOS” value turn out when CN1CC[C@]23c4c5ccc(O)c4O[C@H]2[C@@H](O)C=C[C@H]3[C@H]1C5 [Morphine] was run?
The value was “none were accepted by NOS”.
